The record followed here is paper PMC3988052.

The target of the experiment is ATHB17Δ113::MYC-HA (C-terminal MYC-HA fusion of ATHB17Δ113) (Arabidopsis) (UniProt Q8S9N6). In words: co-IP; bead-based co-immunoprecipitation with Luminex on-bead detection; lysates of co-transformed maize leaf protoplasts; capture on anti-MYC magnetic beads, detection with biotinylated anti-CFP and NeutrAvidin R-phycoerythrin; signal above mean + 3 sigma of the negative controls counted as positive.

Results are given in words; binding and its absence hold for the method and conditions named. In cells and extracts the contact can be indirect. Some entries that bind do so weakly or less than the wild type. Sequences can lack the tags named with a protein.

B1: ATHB17Δ113::MYC-HA (C-terminal MYC-HA fusion of ATHB17Δ113) (domain or fragment, UniProt Q8S9N6 114-275)
chain: MNRLPSSEDGDDEEFSHDDGSAPPRKKLRLTREQSRLLEDSFRQNHTLNPKQKEVLAKHLMLRPRQIEVWFQNRRARSKLKQTEMECEYLKRWFGSLTEENHRLHREVEELRAIKVGPTTVNSASSLTMCPRCERVTPAASPSRAVVPVPAKKTFPPQERDR
As to B1, the binding result is listed as “binds”.
